Experimental data published in the supplement of paper PMC8728848.
The other results are listed elsewhere or left out.

Experiments:
Assay in all cases: glycan array binding signal (z-score within array); higher = stronger binding
Conditions in all cases: glycan notation: IUPAC condensed, linker removed
[1] = molecular target: Gal(a1-3)Gal(b1-4)GlcNAc
Outline: (§1)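 Columns mapping to the same glycan were averaged after glycan names were converted to IUPAC-condensed notation. The data come from 3228 arrays in the Consortium for Functional Glycomics database, limited to those with an available protein sequence. Binding is reported as a within-array Z-score averaged across arrays of one protein sequence and across linkers.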

[2] = molecular target: Gal(a1-3)Gal(b1-4)GlcNAc(b1-2)Man
Outline: as §1

[3] = molecular target: Gal(a1-3)Gal(b1-4)GlcNAc(b1-2)Man(a1-3)[Gal(a1-3)Gal(b1-4)GlcNAc(b1-2)Man(a1-6)]Man(b1-4)GlcNAc(b1-4)GlcNAc
Outline: as §1

[4] = molecular target: Gal(a1-3)Gal(b1-4)GlcNAc(b1-3)GalNAc
Outline: as §1

[5] = molecular target: Gal(a1-3)Gal(b1-4)GlcNAc(b1-6)GalNAc
Outline: as §1

[6] = molecular target: Gal(a1-3)Gal(b1-4)[Fuc(a1-3)]GlcNAc
Outline: as §1

[7] = molecular target: Gal(a1-3)Gal(b1-4)[Fuc(a1-3)]GlcNAc(b1-2)Man(a1-3)[Gal(a1-3)Gal(b1-4)[Fuc(a1-3)]GlcNAc(b1-2)Man(a1-6)]Man(b1-4)GlcNAc(b1-4)GlcNAc
Outline: as §1

[8] = molecular target: Gal(a1-3)GalNAc
Outline: as §1

[9] = molecular target: Gal(a1-3)[Gal(a1-4)]Gal(b1-4)GlcNAc
Outline: as §1

[10] = molecular target: Gal(a1-4)Gal(b1-3)GlcNAc(b1-2)Man(a1-3)[Gal(a1-4)Gal(b1-3)GlcNAc(b1-2)Man(a1-6)]Man(b1-4)GlcNAc(b1-4)GlcNAc
Outline: as §1

[11] = molecular target: Gal(a1-4)Gal(b1-4)Glc
Outline: as §1

[12] = molecular target: Gal(a1-4)Gal(b1-4)GlcNAc
Outline: as §1

[13] = molecular target: Gal(a1-4)Gal(b1-4)GlcNAc(b1-2)Man(a1-3)[Gal(a1-4)Gal(b1-4)GlcNAc(b1-2)Man(a1-6)]Man(b1-4)GlcNAc(b1-4)GlcNAc
Outline: as §1

[14] = molecular target: Gal(a1-4)Gal(b1-4)GlcNAc(b1-3)Gal(b1-4)Glc
Outline: as §1

[15] = molecular target: Gal(a1-4)GlcNAc
Outline: as §1

[16] = molecular target: Gal(a1-6)Glc
Outline: as §1

[17] = molecular target: Gal(b1-2)Gal
Outline: as §1

[18] = molecular target: Gal(b1-3)Gal
Outline: as §1

[19] = molecular target: Gal(b1-3)Gal(b1-4)GlcNAc
Outline: as §1

[20] = molecular target: Gal(b1-3)GalNAc
Outline: as §1

[21] = molecular target: Gal(b1-3)GalNAc(a1-3)[Fuc(a1-2)]Gal(b1-4)Glc
Outline: as §1

[22] = molecular target: Gal(b1-3)GalNAc(a1-3)[Fuc(a1-2)]Gal(b1-4)GlcNAc
Outline: as §1

[23] = molecular target: Gal(b1-3)GalNAc(b1-3)Gal
Outline: as §1

[24] = molecular target: Gal(b1-3)GalNAc(b1-3)Gal(a1-4)Gal(b1-4)Glc
Outline: as §1

[25] = molecular target: Gal(b1-3)GalNAc(b1-4)Gal(b1-4)Glc
Outline: as §1

[26] = molecular target: Gal(b1-3)GalNAc(b1-4)[Neu5Ac(a2-3)]Gal(b1-4)Glc
Outline: as §1

[27] = molecular target: Gal(b1-3)GlcNAc
Outline: as §1

[28] = molecular target: Gal(b1-3)GlcNAc(a1-3)Gal(b1-4)GlcNAc
Outline: as §1

[29] = molecular target: Gal(b1-3)GlcNAc(a1-6)Gal(b1-4)GlcNAc
Outline: as §1

[30] = molecular target: Gal(b1-3)GlcNAc(b1-2)Man
Outline: as §1

[31] = molecular target: Gal(b1-3)GlcNAc(b1-2)Man(a1-3)[Gal(b1-3)GlcNAc(b1-2)Man(a1-6)]Man(b1-4)GlcNAc(b1-4)GlcNAc
Outline: as §1

[32] = molecular target: Gal(b1-3)GlcNAc(b1-2)Man(a1-3)[Gal(b1-3)GlcNAc(b1-2)Man(a1-6)]Man(b1-4)GlcNAc(b1-4)[Fuc(a1-6)]GlcNAc
Outline: as §1

[33] = molecular target: Gal(b1-3)GlcNAc(b1-2)Man(a1-3)[GlcNAc(b1-4)][Gal(b1-3)GlcNAc(b1-2)Man(a1-6)]Man(b1-4)GlcNAc(b1-4)GlcNAc
Outline: as §1

[34] = molecular target: Gal(b1-3)GlcNAc(b1-2)[Gal(b1-3)GlcNAc(b1-6)]Man(a1-6)[Gal(b1-3)GlcNAc(b1-2)Man(a1-3)]Man(b1-4)GlcNAc(b1-4)GlcNAc
Outline: as §1

[35] = molecular target: Gal(b1-3)GlcNAc(b1-3)Gal(b1-3)GlcNAc
Outline: as §1

[36] = molecular target: Gal(b1-3)GlcNAc(b1-3)Gal(b1-4)Glc
Outline: as §1

[37] = molecular target: Gal(b1-3)GlcNAc(b1-3)Gal(b1-4)GlcNAc
Outline: as §1

[38] = molecular target: Gal(b1-3)GlcNAc(b1-3)Gal(b1-4)GlcNAc(b1-2)Man(a1-3)[Gal(b1-3)GlcNAc(b1-3)Gal(b1-4)GlcNAc(b1-2)Man(a1-6)]Man(b1-4)GlcNAc(b1-4)GlcNAc
Outline: as §1

[39] = molecular target: Gal(b1-3)GlcNAc(b1-3)Gal(b1-4)GlcNAc(b1-2)[Gal(b1-3)GlcNAc(b1-3)Gal(b1-4)GlcNAc(b1-6)]Man(a1-6)[Gal(b1-3)GlcNAc(b1-3)Gal(b1-4)GlcNAc(b1-2)Man(a1-3)]Man(b1-4)GlcNAc(b1-4)[Fuc(a1-6)]GlcNAc
Outline: as §1

[40] = molecular target: Gal(b1-3)GlcNAc(b1-3)Gal(b1-4)GlcNAc(b1-3)Gal(b1-4)GlcNAc(b1-2)[Gal(b1-3)GlcNAc(b1-3)Gal(b1-4)GlcNAc(b1-3)Gal(b1-4)GlcNAc(b1-6)]Man(a1-6)[Gal(b1-3)GlcNAc(b1-3)Gal(b1-4)GlcNAc(b1-3)Gal(b1-4)GlcNAc(b1-2)Man(a1-3)]Man(b1-4)GlcNAc(b1-4)[Fuc(a1-6)]GlcNAc
Outline: as §1

[41] = molecular target: Gal(b1-3)GlcNAc(b1-3)Gal(b1-4)GlcNAc(b1-6)[Gal(b1-3)GlcNAc(b1-3)]Gal(b1-4)Glc
Outline: as §1

[42] = molecular target: Gal(b1-3)GlcNAc(b1-3)Gal(b1-4)[Fuc(a1-3)]GlcNAc
Outline: as §1

[43] = molecular target: Gal(b1-3)GlcNAc(b1-3)Gal(b1-4)[Fuc(a1-3)]GlcNAc(b1-6)[Gal(b1-3)GlcNAc(b1-3)]Gal(b1-4)Glc
Outline: as §1

[44] = molecular target: Gal(b1-3)GlcNAc(b1-3)GalNAc
Outline: as §1

[45] = molecular target: Gal(b1-3)GlcNAc(b1-6)Gal(b1-4)GlcNAc
Outline: as §1

B1: pTFF2 (Sus scrofa), P01359 (protein)
chain: KPAACRCSRQDPKNRVNCGFPGITSDQCFTSGCCFDSQVPGVPWCFKPLPAQESEECVMEVSARKNCGYPGISPEDCAARNCCFSDTIPEVPWCFFPMSVEACHY
[1]
  glycan array binding signal (z-score): -0.198
[2]
  glycan array binding signal (z-score): -0.421
[3]
  glycan array binding signal (z-score): -0.027
[4]
  glycan array binding signal (z-score): 0.196
[5]
  glycan array binding signal (z-score): 0.352
[6]
  glycan array binding signal (z-score): 0.264
[7]
  glycan array binding signal (z-score): -0.415
[8]
  glycan array binding signal (z-score): 0.635
[9]
  glycan array binding signal (z-score): -0.421
[10]
  glycan array binding signal (z-score): -0.292
[11]
  glycan array binding signal (z-score): 1.71
[12]
  glycan array binding signal (z-score): 0.805
[13]
  glycan array binding signal (z-score): 2.45
[14]
  glycan array binding signal (z-score): 1.02
[15]
  glycan array binding signal (z-score): -1.17
[16]
  glycan array binding signal (z-score): -1.95
[17]
  glycan array binding signal (z-score): -1.31
[18]
  glycan array binding signal (z-score): -0.193
[19]
  glycan array binding signal (z-score): 0.68
[20]
  glycan array binding signal (z-score): 0.145
[21]
  glycan array binding signal (z-score): -0.167
[22]
  glycan array binding signal (z-score): -1.16
[23]
  glycan array binding signal (z-score): 2.98
[24]
  glycan array binding signal (z-score): -1.04
[25]
  glycan array binding signal (z-score): 0.589
[26]
  glycan array binding signal (z-score): 2.82
[27]
  glycan array binding signal (z-score): -1.55
[28]
  glycan array binding signal (z-score): -0.446
[29]
  glycan array binding signal (z-score): 0.028
[30]
  glycan array binding signal (z-score): 0.212
[31]
  glycan array binding signal (z-score): 0.415
[32]
  glycan array binding signal (z-score): 0.503
[33]
  glycan array binding signal (z-score): -0.675
[34]
  glycan array binding signal (z-score): 0.458
[35]
  glycan array binding signal (z-score): -0.517
[36]
  glycan array binding signal (z-score): -0.393
[37]
  glycan array binding signal (z-score): -0.738
[38]
  glycan array binding signal (z-score): -0.672
[39]
  glycan array binding signal (z-score): -0.456
[40]
  glycan array binding signal (z-score): 0.066
[41]
  glycan array binding signal (z-score): 0.211
[42]
  glycan array binding signal (z-score): -1.04
[43]
  glycan array binding signal (z-score): 0.457
[44]
  glycan array binding signal (z-score): -1.12
[45]
  glycan array binding signal (z-score): -1.61
